The source of these data is patent publication US20020151488A1.

Chains of the proteins cited; added tags and fusions are not shown. Lines headed by an entry give the natural chain unless they say otherwise; changes in a name come on top.
UniProt P09919: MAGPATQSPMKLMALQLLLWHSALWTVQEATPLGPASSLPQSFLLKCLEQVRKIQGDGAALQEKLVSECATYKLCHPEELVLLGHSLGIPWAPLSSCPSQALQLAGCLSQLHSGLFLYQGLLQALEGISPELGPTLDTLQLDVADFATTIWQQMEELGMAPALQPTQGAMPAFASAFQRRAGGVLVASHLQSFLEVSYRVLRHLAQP

Results are given in words; binding and its absence hold for the method and conditions named. Some entries that bind do so weakly or less than the wild type.

The experiment concerns the target T1, G-CSF receptor (free receptor) (UniProt Q99062).
T1 sequence (looked up): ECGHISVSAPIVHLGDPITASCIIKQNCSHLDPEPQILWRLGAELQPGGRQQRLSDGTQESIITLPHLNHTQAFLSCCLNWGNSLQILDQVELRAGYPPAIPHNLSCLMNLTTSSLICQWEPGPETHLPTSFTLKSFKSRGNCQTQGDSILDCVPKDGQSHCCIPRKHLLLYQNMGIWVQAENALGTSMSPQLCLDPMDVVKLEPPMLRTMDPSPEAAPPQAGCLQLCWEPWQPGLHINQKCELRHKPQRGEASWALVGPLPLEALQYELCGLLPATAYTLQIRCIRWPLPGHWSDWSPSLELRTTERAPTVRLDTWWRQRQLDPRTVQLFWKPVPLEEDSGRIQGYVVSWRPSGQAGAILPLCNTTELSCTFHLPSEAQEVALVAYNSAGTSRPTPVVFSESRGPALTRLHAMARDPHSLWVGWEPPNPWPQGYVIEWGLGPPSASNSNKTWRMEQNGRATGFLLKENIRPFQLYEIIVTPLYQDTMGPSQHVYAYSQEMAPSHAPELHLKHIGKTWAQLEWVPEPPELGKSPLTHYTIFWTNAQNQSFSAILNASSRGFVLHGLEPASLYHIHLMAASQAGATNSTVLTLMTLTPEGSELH
Nature of the experiment: BIAcore 2000 competition: 2 nM free receptor mixed with mutant ligand, passed over immobilised His-tagged wild-type G-CSF. A general note: In SPR one partner is held on a chip, and binding of the other changes the refractive index at the surface.
“[Ala^19]G-CSF (from UniProt P09919 31-207) (ligand)”: the binding result is reported as “binds”. With “[Ala^26]G-CSF (from UniProt P09919 31-207) (ligand)” the entry was “binds”; with “[Ala^33]G-CSF (from UniProt P09919 31-207) (ligand)”, “binds”.

As to “[Ala^38]G-CSF (from UniProt P09919 31-207) (ligand)”, the binding result is on record as “binds”. With “[Ala^46]G-CSF (from UniProt P09919 31-207) (ligand)” the entry was “binds”; with “[Asp^30]G-CSF (from UniProt P09919 31-207) (ligand)”, “binds”. Regarding “[Glu^26]G-CSF (from UniProt P09919 31-207) (ligand)”, the binding entry is “binds”.

Consider “[Glu^41]G-CSF (from UniProt P09919 31-207) (ligand)”, for which the binding entry is recorded as “binds”. Regarding “[Glu^47]G-CSF (from UniProt P09919 31-207) (ligand)”, the binding entry is listed as “binds”. With “[Glu^50]G-CSF (from UniProt P09919 31-207) (ligand)” the entry was “binds”. With “[Glu^54]G-CSF (from UniProt P09919 31-207) (ligand)” the entry was “binds”. With “[Glu^144]G-CSF (from UniProt P09919 31-207) (ligand)” the entry was “binds”; with “[Leu^26]G-CSF (from UniProt P09919 31-207) (ligand)”, “binds”.
